This data set is described as follows: general procedure: Fmoc solid-phase peptide synthesis; TentaGel S RAM resin (0.22 mmol/g); Rink Amide MBHA resin (0.25 mmol/g) on synthesizer; DIC/OxymaPure. Particulars: whole synthesis.

Strings that start with PEPTIDE1 are HELM notation: dots part the residues, brackets hold end groups and non-standard residues.

Where the note is “scale 0.09 mmol, run 1”, (AhxL)8(KLK)4(KLL)2KLLL came in with an isolated mass of 91.2 mg and an isolated yield of 19.5%. Moreover, for the setting “scale 0.09 mmol, run 2”, the isolated mass turned out to be 106.3 mg and the isolated yield is reported as 22.7%.
With “PEPTIDE1{K.L.K.K.L.K.L.L.K.K.L.L.[am]}|PEPTIDE2{K.L.K.K.L.K.L.L}|PEPTIDE3{K.L.K.K.L}|PEPTIDE4{K.L.K.K.L}|PEPTIDE5{K.L}|PEPTIDE6{K.L}|PEPTIDE7{K.L}|PEPTIDE8{K.L}$PEPTIDE1,PEPTIDE2,9:R3-8:R2|PEPTIDE1,PEPTIDE3,6:R3-5:R2|PEPTIDE2,PEPTIDE4,6:R3-5:R2|PEPTIDE1,PEPTIDE5,3:R3-2:R2|PEPTIDE2,PEPTIDE6,3:R3-2:R2|PEPTIDE3,PEPTIDE7,3:R3-2:R2|PEPTIDE4,PEPTIDE8,3:R3-2:R2$$$V2.0”, for the setting “scale 0.08 mmol”, the isolated mass worked out at 40.3 mg and the isolated yield amounted to 7.2%.
Taken in the same sequence, the figures for “PEPTIDE1{K.L.K.L.K.K.L.L.K.L.K.K.[am]}|PEPTIDE2{K.L.K.L.K.K.L.L}|PEPTIDE3{K.L.K.L}|PEPTIDE4{K.L.K.L}|PEPTIDE5{K.L}|PEPTIDE6{K.L}|PEPTIDE7{K.L}|PEPTIDE8{K.L}$PEPTIDE1,PEPTIDE2,9:R3-8:R2|PEPTIDE1,PEPTIDE3,5:R3-4:R2|PEPTIDE2,PEPTIDE4,5:R3-4:R2|PEPTIDE1,PEPTIDE5,3:R3-2:R2|PEPTIDE2,PEPTIDE6,3:R3-2:R2|PEPTIDE3,PEPTIDE7,3:R3-2:R2|PEPTIDE4,PEPTIDE8,3:R3-2:R2$$$V2.0” were 37.4 mg and 7.0%.
In the case of “PEPTIDE1{K.L.K.L.K.K.L.L.K.L.L.L.[am]}|PEPTIDE2{K.L.K.L.K.K.L.L}|PEPTIDE3{K.L.K.L.K}|PEPTIDE4{K.L.K.L.K}|PEPTIDE5{K.L}|PEPTIDE6{K.L}|PEPTIDE7{K.L}|PEPTIDE8{K.L}$PEPTIDE1,PEPTIDE2,9:R3-8:R2|PEPTIDE1,PEPTIDE3,6:R3-5:R2|PEPTIDE2,PEPTIDE4,6:R3-5:R2|PEPTIDE1,PEPTIDE5,3:R3-2:R2|PEPTIDE2,PEPTIDE6,3:R3-2:R2|PEPTIDE3,PEPTIDE7,3:R3-2:R2|PEPTIDE4,PEPTIDE8,3:R3-2:R2$$$V2.0”, for the setting “scale 0.09 mmol”, the isolated mass came out at 187.0 mg and the isolated yield is 34.0%.
Where the note is “scale 0.08 mmol”, “PEPTIDE1{[dK].[dL].[dK].[dK].[dL].[dK].[dL].[dL].[dK].[dK].[dL].[dL].[am]}|PEPTIDE2{[dK].[dL].[dK].[dK].[dL].[dK].[dL].[dL]}|PEPTIDE3{[dK].[dL].[dK].[dK].[dL]}|PEPTIDE4{[dK].[dL].[dK].[dK].[dL]}|PEPTIDE5{[dK].[dL]}|PEPTIDE6{[dK].[dL]}|PEPTIDE7{[dK].[dL]}|PEPTIDE8{[dK].[dL]}$PEPTIDE1,PEPTIDE2,9:R3-8:R2|PEPTIDE1,PEPTIDE3,6:R3-5:R2|PEPTIDE2,PEPTIDE4,6:R3-5:R2|PEPTIDE1,PEPTIDE5,3:R3-2:R2|PEPTIDE2,PEPTIDE6,3:R3-2:R2|PEPTIDE3,PEPTIDE7,3:R3-2:R2|PEPTIDE4,PEPTIDE8,3:R3-2:R2$$$V2.0” yielded an isolated mass of 85.5 mg and an isolated yield of 15.3%.
Regarding “PEPTIDE1{[dK].[dL].[dK].[dL].[dK].[dK].[dL].[dL].[dK].[dL].[dK].[dK].[am]}|PEPTIDE2{[dK].[dL].[dK].[dL].[dK].[dK].[dL].[dL]}|PEPTIDE3{[dK].[dL].[dK].[dL]}|PEPTIDE4{[dK].[dL].[dK].[dL]}|PEPTIDE5{[dK].[dL]}|PEPTIDE6{[dK].[dL]}|PEPTIDE7{[dK].[dL]}|PEPTIDE8{[dK].[dL]}$PEPTIDE1,PEPTIDE2,9:R3-8:R2|PEPTIDE1,PEPTIDE3,5:R3-4:R2|PEPTIDE2,PEPTIDE4,5:R3-4:R2|PEPTIDE1,PEPTIDE5,3:R3-2:R2|PEPTIDE2,PEPTIDE6,3:R3-2:R2|PEPTIDE3,PEPTIDE7,3:R3-2:R2|PEPTIDE4,PEPTIDE8,3:R3-2:R2$$$V2.0”, for the setting “scale 0.08 mmol”, the isolated mass amounted to 171.2 mg and the isolated yield is reported as 32.2%.
Where the note is “scale 0.09 mmol”, “PEPTIDE1{[dK].[dL].[dK].[dL].[dK].[dK].[dL].[dL].[dK].[dL].[dL].[dL].[am]}|PEPTIDE2{[dK].[dL].[dK].[dL].[dK].[dK].[dL].[dL]}|PEPTIDE3{[dK].[dL].[dK].[dL].[dK]}|PEPTIDE4{[dK].[dL].[dK].[dL].[dK]}|PEPTIDE5{[dK].[dL]}|PEPTIDE6{[dK].[dL]}|PEPTIDE7{[dK].[dL]}|PEPTIDE8{[dK].[dL]}$PEPTIDE1,PEPTIDE2,9:R3-8:R2|PEPTIDE1,PEPTIDE3,6:R3-5:R2|PEPTIDE2,PEPTIDE4,6:R3-5:R2|PEPTIDE1,PEPTIDE5,3:R3-2:R2|PEPTIDE2,PEPTIDE6,3:R3-2:R2|PEPTIDE3,PEPTIDE7,3:R3-2:R2|PEPTIDE4,PEPTIDE8,3:R3-2:R2$$$V2.0” had an isolated mass of 112.9 mg and an isolated yield of 20.5%.

Source of the values: publication PMC9780108 (Cell Reports. Physical Science, 2022).
